± gives the standard deviation of the averaged measurements. Values are relative to the signal before dosing, not to a vehicle control; the signal also falls without drug.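 Labels refer to human fibroblasts, largely primary: uterine (C12385, HUF), lung (H6013), bone (Hs27A), adrenal (HADF), skin (WS1), plus mammary HMF and breast cancer-associated Hs343T. Cancer lines are basal-like or mesenchymal-like triple-negative breast cancer. The paper counts as hits responses shifting over 3x the replicate standard deviation. The tissue of the other fibroblasts is not given here.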
Test system: MDAMB231
Assay: relative JC-1 red fluorescence (viability) vs pre-drug, coculture with fibroblast (fraction); higher = more viable cancer cells
Experimental: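 JC-1 labelled TNBC cells cocultured 1:1 (1,500 cells each) with CellTrace Violet stained primary or stromal fibroblasts in 384-well plates in FluoroBrite medium, treated with one of 42 anticancer drugs at 0.1, 1, 10 or 100 uM. JC-1 red fluorescence (mitochondrial integrity in cancer cells only) was read by plate reader every 8 h for 72 h. Values are normalised to each well's pre-drug value. The stock of one drug was tenfold lower, so its dose labels may be too high.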

COc1cc([C@@H]2c3cc4c(cc3[C@@H](O[C@@H]3O[C@@H]5CO[C@@H](C)O[C@H]5[C@H](O)[C@H]3O)[C@H]3COC(=O)[C@H]23)OCO4)cc(OC)c1O [Etoposide]
relative JC-1 red fluorescence
Details | 8 h | 16 h | 24 h | 32 h | 40 h | 48 h | 56 h | 64 h | 72 h
0.1 µM, coculture fibroblast: C12385 | 0.765 ± 0.024 | 0.697 ± 0.013 | 0.697 ± 0.012 | 0.622 ± 0.031 | 0.57 ± 0.026 | 0.536 ± 0.042 | 0.504 ± 0.045 | 0.519 ± 0.047 | 0.505 ± 0.05
0.1 µM, coculture fibroblast: H6013 | 0.901 ± 0.042 | 0.821 ± 0.013 | 0.768 ± 0.053 | 0.741 ± 0.073 | 0.701 ± 0.083 | 0.667 ± 0.1 | 0.639 ± 0.097 | 0.627 ± 0.12 | 0.59 ± 0.11
0.1 µM, coculture fibroblast: H6019 | 0.751 ± 0.061 | 0.693 ± 0.072 | 0.689 ± 0.078 | 0.664 ± 0.1 | 0.627 ± 0.13 | 0.632 ± 0.14 | 0.598 ± 0.15 | 0.602 ± 0.15 | 0.571 ± 0.14
0.1 µM, coculture fibroblast: H6076 | 0.793 ± 0.057 | 0.72 ± 0.028 | 0.671 ± 0.0041 | 0.646 ± 0.011 | 0.625 ± 0.041 | 0.592 ± 0.05 | 0.584 ± 0.082 | 0.576 ± 0.096 | 0.585 ± 0.11
0.1 µM, coculture fibroblast: H6231 | 0.883 ± 0.0064 | 0.793 ± 0.048 | 0.745 ± 0.061 | 0.695 ± 0.073 | 0.651 ± 0.075 | 0.617 ± 0.077 | 0.59 ± 0.087 | 0.584 ± 0.1 | 0.569 ± 0.11
0.1 µM, coculture fibroblast: HADF | 0.8618 ± 0.0073 | 0.801 ± 0.013 | 0.763 ± 0.014 | 0.721 ± 0.022 | 0.692 ± 0.023 | 0.651 ± 0.041 | 0.631 ± 0.053 | 0.619 ± 0.06 | 0.582 ± 0.065
0.1 µM, coculture fibroblast: HCFa | 0.8709 ± 0.0069 | 0.802 ± 0.012 | 0.751 ± 0.021 | 0.696 ± 0.0082 | 0.6526 ± 0.0024 | 0.62 ± 0.027 | 0.589 ± 0.011 | 0.561 ± 0.016 | 0.517 ± 0.022
0.1 µM, coculture fibroblast: HCPF | 0.841 ± 0.011 | 0.7491 ± 0.0063 | 0.689 ± 0.007 | 0.6512 ± 0.0025 | 0.6046 ± 0.00088 | 0.569 ± 0.019 | 0.539 ± 0.028 | 0.523 ± 0.032 | 0.512 ± 0.029
0.1 µM, coculture fibroblast: HHSteC | 0.88 ± 0.016 | 0.846 ± 0.024 | 0.798 ± 0.031 | 0.74 ± 0.056 | 0.694 ± 0.077 | 0.667 ± 0.099 | 0.62 ± 0.095 | 0.606 ± 0.11 | 0.57 ± 0.11
0.1 µM, coculture fibroblast: HMF | 0.8279 ± 0.0055 | 0.7447 ± 0.001 | 0.686 ± 0.014 | 0.644 ± 0.02 | 0.597 ± 0.033 | 0.557 ± 0.03 | 0.524 ± 0.029 | 0.517 ± 0.029 | 0.506 ± 0.047
0.1 µM, coculture fibroblast: HPFa | 0.9276 ± 0.0086 | 0.8955 ± 0.0014 | 0.84 ± 0.0052 | 0.7745 ± 0.007 | 0.74431 ± 1.6e-05 | 0.7 ± 0.017 | 0.635 ± 0.025 | 0.591 ± 0.03 | 0.531 ± 0.033
0.1 µM, coculture fibroblast: HUF | 0.836 ± 0.016 | 0.738 ± 0.038 | 0.759 ± 0.035 | 0.644 ± 0.057 | 0.583 ± 0.05 | 0.571 ± 0.049 | 0.528 ± 0.058 | 0.532 ± 0.058 | 0.52 ± 0.059
0.1 µM, coculture fibroblast: Hs5 | 0.836 ± 0.011 | 0.775 ± 0.035 | 0.726 ± 0.035 | 0.675 ± 0.037 | 0.639 ± 0.046 | 0.585 ± 0.05 | 0.554 ± 0.06 | 0.533 ± 0.068 | 0.512 ± 0.078
0.1 µM, coculture fibroblast: Hs27A | 0.88289 ± 0.0008 | 0.848 ± 0.056 | 0.811 ± 0.073 | 0.787 ± 0.079 | 0.74 ± 0.084 | 0.673 ± 0.079 | 0.669 ± 0.082 | 0.651 ± 0.081 | 0.601 ± 0.087
0.1 µM, coculture fibroblast: Hs343T | 0.8888 ± 0.0067 | 0.81 ± 0.02 | 0.742 ± 0.059 | 0.702 ± 0.089 | 0.638 ± 0.098 | 0.592 ± 0.12 | 0.557 ± 0.14 | 0.531 ± 0.15 | 0.517 ± 0.17
0.1 µM, coculture fibroblast: WS1 | 0.735 ± 0.038 | 0.663 ± 0.05 | 0.656 ± 0.0091 | 0.573 ± 0.053 | 0.535 ± 0.053 | 0.514 ± 0.05 | 0.477 ± 0.043 | 0.491 ± 0.035 | 0.481 ± 0.038
1 µM, coculture fibroblast: C12385 | 0.763 ± 0.016 | 0.696 ± 0.025 | 0.724 ± 0.11 | 0.641 ± 0.066 | 0.556 ± 0.11 | 0.53 ± 0.13 | 0.508 ± 0.14 | 0.524 ± 0.15 | 0.517 ± 0.16
1 µM, coculture fibroblast: H6013 | 0.888 ± 0.029 | 0.839 ± 0.053 | 0.801 ± 0.074 | 0.78 ± 0.076 | 0.748 ± 0.074 | 0.741 ± 0.093 | 0.708 ± 0.11 | 0.694 ± 0.1 | 0.645 ± 0.1
1 µM, coculture fibroblast: H6019 | 0.745 ± 0.021 | 0.68 ± 0.0034 | 0.666 ± 0.044 | 0.637 ± 0.038 | 0.592 ± 0.036 | 0.578 ± 0.059 | 0.533 ± 0.073 | 0.524 ± 0.073 | 0.493 ± 0.068
1 µM, coculture fibroblast: H6076 | 0.861 ± 0.023 | 0.793 ± 0.021 | 0.762 ± 0.035 | 0.737 ± 0.033 | 0.695 ± 0.037 | 0.661 ± 0.021 | 0.645 ± 0.028 | 0.622 ± 0.026 | 0.615 ± 0.036
1 µM, coculture fibroblast: H6231 | 0.875 ± 0.032 | 0.788 ± 0.0094 | 0.723 ± 0.013 | 0.689 ± 0.024 | 0.638 ± 0.032 | 0.606 ± 0.042 | 0.568 ± 0.054 | 0.553 ± 0.062 | 0.531 ± 0.071
1 µM, coculture fibroblast: HADF | 0.844 ± 0.02 | 0.8351 ± 0.0011 | 0.776 ± 0.015 | 0.73 ± 0.02 | 0.7088 ± 0.004 | 0.6902 ± 0.0046 | 0.675 ± 0.0088 | 0.661 ± 0.01 | 0.627 ± 0.027
1 µM, coculture fibroblast: HCFa | 0.865 ± 0.017 | 0.8143 ± 0.0035 | 0.784 ± 0.0083 | 0.7447 ± 0.0033 | 0.705 ± 0.0088 | 0.663 ± 0.0086 | 0.617 ± 0.01 | 0.583 ± 0.013 | 0.531 ± 0.011
1 µM, coculture fibroblast: HCPF | 0.812 ± 0.014 | 0.716 ± 0.012 | 0.66 ± 0.024 | 0.637 ± 0.033 | 0.58 ± 0.036 | 0.548 ± 0.045 | 0.527 ± 0.05 | 0.511 ± 0.057 | 0.493 ± 0.074
1 µM, coculture fibroblast: HHSteC | 0.875 ± 0.027 | 0.8225 ± 0.0075 | 0.782 ± 0.014 | 0.746 ± 0.018 | 0.712 ± 0.013 | 0.697 ± 0.012 | 0.6547 ± 0.0052 | 0.639 ± 0.0075 | 0.593 ± 0.017
1 µM, coculture fibroblast: HMF | 0.863 ± 0.024 | 0.785 ± 0.042 | 0.734 ± 0.062 | 0.703 ± 0.059 | 0.657 ± 0.071 | 0.624 ± 0.084 | 0.598 ± 0.079 | 0.589 ± 0.1 | 0.577 ± 0.093
1 µM, coculture fibroblast: HPFa | 0.904 ± 0.021 | 0.841 ± 0.018 | 0.7946 ± 0.0024 | 0.7439 ± 0.0042 | 0.72 ± 0.021 | 0.69 ± 0.027 | 0.64 ± 0.028 | 0.606 ± 0.018 | 0.553 ± 0.014
1 µM, coculture fibroblast: HUF | 0.852 ± 0.055 | 0.751 ± 0.063 | 0.746 ± 0.041 | 0.668 ± 0.057 | 0.608 ± 0.057 | 0.593 ± 0.054 | 0.555 ± 0.054 | 0.552 ± 0.043 | 0.535 ± 0.026
1 µM, coculture fibroblast: Hs5 | 0.834 ± 0.066 | 0.757 ± 0.052 | 0.696 ± 0.024 | 0.639 ± 0.032 | 0.6 ± 0.014 | 0.536 ± 0.011 | 0.513 ± 0.013 | 0.498 ± 0.029 | 0.486 ± 0.044
1 µM, coculture fibroblast: Hs27A | 0.859 ± 0.013 | 0.814 ± 0.0081 | 0.7827 ± 0.0071 | 0.758 ± 0.012 | 0.701 ± 0.026 | 0.663 ± 0.045 | 0.654 ± 0.051 | 0.636 ± 0.065 | 0.594 ± 0.067
1 µM, coculture fibroblast: Hs343T | 0.8129 ± 0.0039 | 0.7288 ± 0.002 | 0.68859 ± 0.00055 | 0.643 ± 0.0087 | 0.596 ± 0.013 | 0.5597 ± 0.0015 | 0.515 ± 0.017 | 0.506 ± 0.038 | 0.484 ± 0.045
1 µM, coculture fibroblast: WS1 | 0.704 ± 0.027 | 0.639 ± 0.02 | 0.633 ± 0.017 | 0.5469 ± 0.0006 | 0.5047 ± 0.0029 | 0.4877 ± 0.0029 | 0.4638 ± 0.0026 | 0.482 ± 0.0012 | 0.4771 ± 0.00098

— the supplement of paper PMC6078165
